Measurements: patent US20150111836

Chains of the proteins cited; added tags and fusions are not shown. Lines headed by an entry give the natural chain unless they say otherwise; changes in a name come on top.
UniProt Q9HC16: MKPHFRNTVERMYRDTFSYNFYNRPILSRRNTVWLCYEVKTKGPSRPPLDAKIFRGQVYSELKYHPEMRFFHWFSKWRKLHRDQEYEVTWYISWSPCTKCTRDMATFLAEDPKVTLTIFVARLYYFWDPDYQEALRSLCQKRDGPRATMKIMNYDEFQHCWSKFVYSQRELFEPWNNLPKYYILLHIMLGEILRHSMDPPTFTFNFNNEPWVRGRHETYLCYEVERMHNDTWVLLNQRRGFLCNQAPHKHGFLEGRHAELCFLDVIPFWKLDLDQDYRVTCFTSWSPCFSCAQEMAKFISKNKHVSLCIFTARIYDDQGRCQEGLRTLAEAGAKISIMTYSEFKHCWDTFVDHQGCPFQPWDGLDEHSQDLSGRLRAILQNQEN

Biological target: APOBEC3G (A3G) (Homo sapiens) (UniProt Q9HC16)
Test: EMSA
Conditions: purified recombinant protein, protein details: C-terminal Myc-His6, expressed in 293T cells

Sequence | binding result (markedly reduced when both termini double-stranded, variant of …) | binding result (slightly reduced without 5' ssDNA terminus, variant of S160)
GGATTGGTTGGTTATTTGTTTAAGGAAGGAAGAAGGAAGGCCCAATAAGGGAAGGCCCAATAAGTGGGAAGGCCCAATAAGTGAATTAAATAAGTGATTGATAAATAAGTGATTGATAAGTTGATTAAATAGTTGGAAGTTATGTTTGGTAGATTGATGG / ACCTTCCTTAAACAAATAACCAACCAATCC / CCATCAATCTACCAAACATAACTTCCATCA [S160 with both ends double-stranded] | binds more weakly | –
GGATTGGTTGGTTATTTGTTTAAGGAAGGAAGAAGGAAGGCCCAATAAGGGAAGGCCCAATAAGTGGGAAGGCCCAATAAGTGAATTAAATAAGTGATTGATAAATAAGTGATTGATAAGTTGATTAAATAGTTGGAAGTTATGTTTGGTAGATTGATGG / ACCTTCCTTAAACAAATAACCAACCAATCC [S160 with 5' end double-stranded] | – | binds more weakly

Weaker means in comparison with the reference protein, sequence or condition of that experiment.
